Source: patent US20130336951A1

Legend:
[1] = target: Glyceraldehyde 3-phosphate-dehydrogenase (GAPDH), endogenous protein of rat hippocampus (Rattus norvegicus); test: GST pull-down, Western blot
[2] = target: Glyceraldehyde 3-phosphate-dehydrogenase (GAPDH), endogenous protein of rat hippocampus (Rattus norvegicus); test: repeated GST pull-down from rat hippocampal tissue
[3] = target: Glyceraldehyde 3-phosphate-dehydrogenase (GAPDH), endogenous protein of rat hippocampus (Rattus norvegicus); test: GST pull-down from rat hippocampal extracts, Western blot (FIG. 6B)
[4] = target: Glyceraldehyde 3-phosphate-dehydrogenase (GAPDH), endogenous protein of rat hippocampus (Rattus norvegicus); test: GST pull-down from rat hippocampal tissue, 20 µg fusion, 100 µg tissue (FIG. 6I)

Measured: binding

B1: GST-GluR2 NT1-3-2 (Y142-K172) (peptide, not shown: a dimerising Fc or GST)
chain: YYQWDKFAYLYDSDRGLSTLQAVLDSAAEKK
binds: [1] | [2] | [3] | [4]

No constants are given. Whether binding was seen depends on the method and setting. In cells and extracts the contact can be indirect. A result given as binding can be weak or reduced; the word gives no strength. Sequences can lack the tags named with a protein.
